Consider one molecule from article PMC3522597.

These are yes or no findings as the source states them, for the method shown. In cells and extracts the contact can be indirect. Some results given as binding are weak or reduced against the parent protein; the word gives no strength.

The target in this test is T1, tetraspanin CD81 (human (endogenous in Du145)) (UniProt P60033).
T1 sequence: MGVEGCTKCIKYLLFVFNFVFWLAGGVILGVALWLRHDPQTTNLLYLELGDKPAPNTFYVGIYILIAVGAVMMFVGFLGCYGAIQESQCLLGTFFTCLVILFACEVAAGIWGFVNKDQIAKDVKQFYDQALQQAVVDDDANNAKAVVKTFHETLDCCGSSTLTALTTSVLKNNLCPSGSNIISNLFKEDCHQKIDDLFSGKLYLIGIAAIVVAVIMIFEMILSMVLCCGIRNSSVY
The experiment in a line: co-IP; Du145-CD82 cells grown dense (confluent) or sparse (50% confluence), lysed in 1% Brij 98; precipitated with CD81 mAb M38 or control IgG, blotted with CD82 mAb TS82b.

B1: Tetraspanin KAI1/CD82 (protein, UniProt P27701 1-267)
chain: MGSACIKVTKYFLFLFNLIFFILGAVILGFGVWILADKSSFISVLQTSSSSLRMGAYVFIGVGAVTMLMGFLGCIGAVNEVRCLLGLYFAFLLLILIAQVTAGALFYFNMGKLKQEMGGIVTELIRDYNSSREDSLQDAWDYVQAQVKCCGWVSFYNWTDNAELMNRPEVTYPCSCEVKGEEDNSLSVRKGFCEAPGNRTQSGNHPEDWPVYQEGCMEKVQAWLQENLGIILGVGVGVAIIELLGMVLSICLCRHVHSEDYSKVPKY
In the case of B1, the binding entry was “binds”.
